Data from doi:10.1101/2022.10.19.512916.
These are yes or no findings as the source states them, for the method shown. Binding seen in cells or lysates may run through a third protein. Some entries that bind do so weakly or less than the wild type.

Sequences of proteins named here, by UniProt entry; tags and fusion partners are left off.
UniProt P15924: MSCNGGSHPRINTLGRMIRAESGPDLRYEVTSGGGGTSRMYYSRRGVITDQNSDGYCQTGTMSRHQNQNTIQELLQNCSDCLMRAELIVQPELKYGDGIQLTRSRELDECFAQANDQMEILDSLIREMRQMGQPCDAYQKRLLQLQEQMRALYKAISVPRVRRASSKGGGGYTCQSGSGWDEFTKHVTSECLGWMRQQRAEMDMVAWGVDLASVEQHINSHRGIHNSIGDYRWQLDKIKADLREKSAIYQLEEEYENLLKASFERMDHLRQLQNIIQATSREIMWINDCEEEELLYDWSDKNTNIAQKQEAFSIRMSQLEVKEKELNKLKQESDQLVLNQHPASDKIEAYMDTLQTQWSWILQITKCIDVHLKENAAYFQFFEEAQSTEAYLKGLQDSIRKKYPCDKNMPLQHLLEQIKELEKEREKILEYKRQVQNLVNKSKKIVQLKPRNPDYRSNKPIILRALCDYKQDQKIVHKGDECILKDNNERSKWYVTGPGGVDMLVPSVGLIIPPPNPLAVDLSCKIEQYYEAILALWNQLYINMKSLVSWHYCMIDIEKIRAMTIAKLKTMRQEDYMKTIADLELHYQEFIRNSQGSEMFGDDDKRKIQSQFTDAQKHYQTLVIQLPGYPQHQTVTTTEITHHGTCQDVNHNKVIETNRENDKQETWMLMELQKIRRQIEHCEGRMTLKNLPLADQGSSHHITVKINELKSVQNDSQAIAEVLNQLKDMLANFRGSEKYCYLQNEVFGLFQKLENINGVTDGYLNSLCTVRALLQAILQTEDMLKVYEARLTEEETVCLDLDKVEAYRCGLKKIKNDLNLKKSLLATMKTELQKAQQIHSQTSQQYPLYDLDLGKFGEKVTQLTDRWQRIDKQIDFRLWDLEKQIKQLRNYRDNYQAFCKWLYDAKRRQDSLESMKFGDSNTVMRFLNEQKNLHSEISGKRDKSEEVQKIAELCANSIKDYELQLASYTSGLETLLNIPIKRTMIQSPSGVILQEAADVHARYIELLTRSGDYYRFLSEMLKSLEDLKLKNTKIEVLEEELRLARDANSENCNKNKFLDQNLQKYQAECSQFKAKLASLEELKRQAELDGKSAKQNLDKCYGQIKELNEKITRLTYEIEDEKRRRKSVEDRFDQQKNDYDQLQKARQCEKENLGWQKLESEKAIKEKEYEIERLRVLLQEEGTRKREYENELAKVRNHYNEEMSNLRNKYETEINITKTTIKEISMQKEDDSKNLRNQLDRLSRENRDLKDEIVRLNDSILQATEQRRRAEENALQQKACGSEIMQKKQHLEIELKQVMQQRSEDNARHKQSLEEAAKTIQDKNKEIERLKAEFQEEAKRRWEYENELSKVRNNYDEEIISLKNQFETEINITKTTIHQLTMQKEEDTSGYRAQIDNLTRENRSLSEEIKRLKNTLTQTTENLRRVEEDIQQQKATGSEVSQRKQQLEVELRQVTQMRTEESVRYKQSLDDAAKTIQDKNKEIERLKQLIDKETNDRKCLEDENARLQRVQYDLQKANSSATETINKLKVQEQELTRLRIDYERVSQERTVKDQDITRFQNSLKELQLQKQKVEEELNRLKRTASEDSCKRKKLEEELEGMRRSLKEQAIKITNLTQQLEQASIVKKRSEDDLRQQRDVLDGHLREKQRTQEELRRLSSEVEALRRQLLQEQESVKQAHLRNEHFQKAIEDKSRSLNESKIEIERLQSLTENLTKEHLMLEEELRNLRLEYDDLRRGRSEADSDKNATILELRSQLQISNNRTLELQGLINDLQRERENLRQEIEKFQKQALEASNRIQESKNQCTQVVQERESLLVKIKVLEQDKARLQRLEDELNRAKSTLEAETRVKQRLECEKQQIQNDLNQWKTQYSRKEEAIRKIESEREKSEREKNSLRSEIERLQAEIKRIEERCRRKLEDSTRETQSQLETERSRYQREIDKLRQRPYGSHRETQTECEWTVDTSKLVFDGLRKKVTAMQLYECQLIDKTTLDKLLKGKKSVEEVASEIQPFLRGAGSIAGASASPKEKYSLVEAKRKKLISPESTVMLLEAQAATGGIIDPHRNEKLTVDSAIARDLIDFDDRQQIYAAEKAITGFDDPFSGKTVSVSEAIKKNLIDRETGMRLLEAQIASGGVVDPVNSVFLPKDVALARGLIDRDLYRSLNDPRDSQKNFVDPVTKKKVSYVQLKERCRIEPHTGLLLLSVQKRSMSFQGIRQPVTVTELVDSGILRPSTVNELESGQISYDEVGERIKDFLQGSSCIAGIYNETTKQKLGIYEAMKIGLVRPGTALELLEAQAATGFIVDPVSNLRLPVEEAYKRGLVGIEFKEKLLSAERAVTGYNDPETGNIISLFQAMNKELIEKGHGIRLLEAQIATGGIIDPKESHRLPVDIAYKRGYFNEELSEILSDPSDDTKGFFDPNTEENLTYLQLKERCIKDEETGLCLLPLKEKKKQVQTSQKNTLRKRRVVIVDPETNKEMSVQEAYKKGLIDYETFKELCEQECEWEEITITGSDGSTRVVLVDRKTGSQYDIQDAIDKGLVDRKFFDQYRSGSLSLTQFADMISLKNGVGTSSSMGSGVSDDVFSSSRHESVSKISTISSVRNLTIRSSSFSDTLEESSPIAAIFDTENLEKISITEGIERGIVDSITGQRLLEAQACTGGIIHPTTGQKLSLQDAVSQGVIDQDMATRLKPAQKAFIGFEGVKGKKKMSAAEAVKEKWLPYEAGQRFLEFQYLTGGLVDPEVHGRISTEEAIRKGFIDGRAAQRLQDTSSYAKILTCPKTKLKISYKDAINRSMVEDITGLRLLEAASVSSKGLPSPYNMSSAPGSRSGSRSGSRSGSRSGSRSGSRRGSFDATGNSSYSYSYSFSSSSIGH

Target: T1, PP2A regulatory subunit B55α (human (endogenous in SCC9)) (UniProt P63151)
T1 sequence: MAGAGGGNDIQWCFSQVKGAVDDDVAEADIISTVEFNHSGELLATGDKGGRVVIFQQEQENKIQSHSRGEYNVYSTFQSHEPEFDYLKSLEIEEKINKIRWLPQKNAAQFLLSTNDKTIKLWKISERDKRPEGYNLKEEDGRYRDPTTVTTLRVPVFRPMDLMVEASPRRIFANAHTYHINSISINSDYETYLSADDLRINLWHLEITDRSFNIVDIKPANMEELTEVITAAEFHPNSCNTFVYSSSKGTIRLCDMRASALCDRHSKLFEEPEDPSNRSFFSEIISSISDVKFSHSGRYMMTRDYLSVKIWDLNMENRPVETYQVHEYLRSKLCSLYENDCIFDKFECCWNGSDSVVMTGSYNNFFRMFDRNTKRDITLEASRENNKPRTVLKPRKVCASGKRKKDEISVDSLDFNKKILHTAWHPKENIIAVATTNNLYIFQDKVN
Assay: co-IP

binding: binds
Substance: desmoplakin (DP) (from UniProt P15924 1-2871)
